In the assay the target is Rab5A (human (endogenous in hREC)) (UniProt P20339). Put plainly: co-IP.

Amino acid sequences for entries named in this document (tags omitted). Residues count along the entry.
UniProt P20339: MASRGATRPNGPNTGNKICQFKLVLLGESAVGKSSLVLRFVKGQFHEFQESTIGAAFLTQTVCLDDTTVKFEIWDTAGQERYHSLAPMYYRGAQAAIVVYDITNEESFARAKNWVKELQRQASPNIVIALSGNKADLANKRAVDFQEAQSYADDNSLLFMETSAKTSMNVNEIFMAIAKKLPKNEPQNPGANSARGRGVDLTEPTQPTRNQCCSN
UniProt Q9NQT8: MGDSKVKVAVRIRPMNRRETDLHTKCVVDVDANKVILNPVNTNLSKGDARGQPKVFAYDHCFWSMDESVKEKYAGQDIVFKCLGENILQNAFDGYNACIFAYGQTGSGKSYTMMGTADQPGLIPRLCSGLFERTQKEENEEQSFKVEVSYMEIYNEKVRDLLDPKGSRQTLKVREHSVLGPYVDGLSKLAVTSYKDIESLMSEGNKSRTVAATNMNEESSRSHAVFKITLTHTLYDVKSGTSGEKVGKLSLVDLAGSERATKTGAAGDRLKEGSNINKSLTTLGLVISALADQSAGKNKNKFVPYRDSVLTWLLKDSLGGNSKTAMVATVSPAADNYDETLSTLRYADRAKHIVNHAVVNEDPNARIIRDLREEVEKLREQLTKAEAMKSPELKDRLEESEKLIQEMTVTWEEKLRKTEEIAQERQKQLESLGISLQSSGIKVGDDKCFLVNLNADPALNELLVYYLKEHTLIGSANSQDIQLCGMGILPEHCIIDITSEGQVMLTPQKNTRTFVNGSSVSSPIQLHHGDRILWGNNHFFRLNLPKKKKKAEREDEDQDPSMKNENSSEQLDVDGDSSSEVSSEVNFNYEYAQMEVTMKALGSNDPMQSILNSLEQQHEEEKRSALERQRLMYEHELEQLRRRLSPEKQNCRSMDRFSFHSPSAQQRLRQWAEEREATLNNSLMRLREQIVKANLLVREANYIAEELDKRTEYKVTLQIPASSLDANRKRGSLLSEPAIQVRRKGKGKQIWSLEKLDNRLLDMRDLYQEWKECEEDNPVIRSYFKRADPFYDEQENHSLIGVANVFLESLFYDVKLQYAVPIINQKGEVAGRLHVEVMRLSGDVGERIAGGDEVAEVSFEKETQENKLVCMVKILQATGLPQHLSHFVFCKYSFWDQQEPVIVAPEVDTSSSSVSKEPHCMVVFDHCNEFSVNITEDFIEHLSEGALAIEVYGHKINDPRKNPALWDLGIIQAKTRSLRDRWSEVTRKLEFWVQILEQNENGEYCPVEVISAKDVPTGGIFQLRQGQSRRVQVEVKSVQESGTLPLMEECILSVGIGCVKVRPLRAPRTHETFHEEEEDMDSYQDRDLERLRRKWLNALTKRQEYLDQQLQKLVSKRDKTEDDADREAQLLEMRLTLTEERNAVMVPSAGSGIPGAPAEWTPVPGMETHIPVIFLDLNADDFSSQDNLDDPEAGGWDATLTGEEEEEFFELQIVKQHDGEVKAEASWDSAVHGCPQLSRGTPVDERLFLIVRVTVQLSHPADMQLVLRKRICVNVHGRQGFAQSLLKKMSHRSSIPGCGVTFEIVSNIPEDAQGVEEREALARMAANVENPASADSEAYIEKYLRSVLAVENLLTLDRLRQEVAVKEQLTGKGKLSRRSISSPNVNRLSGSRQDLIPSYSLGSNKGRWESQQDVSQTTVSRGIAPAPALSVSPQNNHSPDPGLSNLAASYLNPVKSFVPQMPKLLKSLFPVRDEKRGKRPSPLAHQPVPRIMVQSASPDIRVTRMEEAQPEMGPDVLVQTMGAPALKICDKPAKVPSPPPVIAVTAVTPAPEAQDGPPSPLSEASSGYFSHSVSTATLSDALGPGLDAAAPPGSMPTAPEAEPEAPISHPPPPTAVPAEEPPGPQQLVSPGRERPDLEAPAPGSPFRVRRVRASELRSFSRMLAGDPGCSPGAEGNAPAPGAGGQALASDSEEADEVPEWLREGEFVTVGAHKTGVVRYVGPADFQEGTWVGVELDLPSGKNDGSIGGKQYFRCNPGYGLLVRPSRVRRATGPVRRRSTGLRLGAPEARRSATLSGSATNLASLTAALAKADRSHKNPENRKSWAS
UniProt P35968, residues 20-1356: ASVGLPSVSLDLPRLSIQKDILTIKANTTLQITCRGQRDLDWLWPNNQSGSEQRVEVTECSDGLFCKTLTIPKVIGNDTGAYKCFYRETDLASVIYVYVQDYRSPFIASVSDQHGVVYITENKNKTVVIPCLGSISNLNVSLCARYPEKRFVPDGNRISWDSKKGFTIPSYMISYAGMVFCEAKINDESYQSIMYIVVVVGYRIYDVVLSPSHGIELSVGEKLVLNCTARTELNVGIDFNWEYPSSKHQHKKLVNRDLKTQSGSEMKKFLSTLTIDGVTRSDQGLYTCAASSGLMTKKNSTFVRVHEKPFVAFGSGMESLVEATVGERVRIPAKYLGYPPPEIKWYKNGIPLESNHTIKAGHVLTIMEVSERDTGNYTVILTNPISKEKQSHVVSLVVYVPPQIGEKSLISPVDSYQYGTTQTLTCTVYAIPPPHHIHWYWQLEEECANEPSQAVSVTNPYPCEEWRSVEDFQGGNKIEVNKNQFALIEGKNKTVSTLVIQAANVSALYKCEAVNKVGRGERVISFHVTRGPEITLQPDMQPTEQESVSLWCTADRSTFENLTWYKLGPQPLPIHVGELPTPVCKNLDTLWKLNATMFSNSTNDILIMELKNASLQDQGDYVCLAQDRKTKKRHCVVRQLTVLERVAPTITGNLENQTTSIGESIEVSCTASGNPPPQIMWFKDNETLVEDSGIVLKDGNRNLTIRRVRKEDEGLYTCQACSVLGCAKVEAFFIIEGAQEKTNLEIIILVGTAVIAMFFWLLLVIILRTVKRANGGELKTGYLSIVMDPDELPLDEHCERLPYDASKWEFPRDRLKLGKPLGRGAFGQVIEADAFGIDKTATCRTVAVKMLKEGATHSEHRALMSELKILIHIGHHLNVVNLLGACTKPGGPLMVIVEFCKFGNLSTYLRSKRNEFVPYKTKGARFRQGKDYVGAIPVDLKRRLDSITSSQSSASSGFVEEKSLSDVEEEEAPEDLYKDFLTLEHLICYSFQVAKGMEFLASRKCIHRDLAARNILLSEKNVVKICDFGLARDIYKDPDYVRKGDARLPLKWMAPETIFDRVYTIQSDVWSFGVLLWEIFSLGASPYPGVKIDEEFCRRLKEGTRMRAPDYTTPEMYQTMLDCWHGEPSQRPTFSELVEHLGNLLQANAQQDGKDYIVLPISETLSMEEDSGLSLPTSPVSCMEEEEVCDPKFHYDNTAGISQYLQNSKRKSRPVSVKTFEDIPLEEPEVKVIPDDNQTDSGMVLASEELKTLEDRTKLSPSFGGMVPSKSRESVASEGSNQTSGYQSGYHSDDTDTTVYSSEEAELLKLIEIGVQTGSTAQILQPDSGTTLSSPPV

These are yes or no findings as the source states them, for the method shown. In cells and extracts the contact can be indirect. Some entries that bind do so weakly or less than the wild type.

For the substance KIF13B (from UniProt Q9NQT8 1-1826), the binding result is recorded as “binds”. As to “VEGFR2 (from UniProt P35968 20-1356) (receptor)”, the binding entry is listed as “binds”.

These data come from publication doi:10.1101/2022.06.06.494986.
